Amino acid sequences for entries named in this document (tags omitted). A change or cut given only in a name is not applied to a line headed by its entry.
UniProt P26350: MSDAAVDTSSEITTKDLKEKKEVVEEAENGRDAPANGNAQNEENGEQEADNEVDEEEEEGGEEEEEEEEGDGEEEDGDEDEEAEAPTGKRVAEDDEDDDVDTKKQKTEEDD

According to patent US20260266848A1, “COMPOSITIONS AND METHODS FOR DIAGNOSING AND TREATING DYSTONIA” (Duke University, priority 2023, published 2026):

Tests used:
[1] = tested on: DYT1 patient plasma derived EVs; assay: Plasma-derived EV proteomics (ExoQuick ULTRA, DIA LC/MS/MS), DYT1 vs Healthy Controls; set-up: species or system human; details: for Mean DYT1 / Mean HC: protein abundance; for Mean DYT1: DYT1 patients; for Mean HC: healthy controls (HC); for Log2FC: DYT1 patients as compared to healthy controls; for Directionality / Log2_FC: Hs. Plasma EVs (DYT1/WT); for Log2_FC: protein level, human patient derived EVs by genotype; for Hs. Plasma EVs (DYT1/WT): directionality of protein change, human plasma derived EVs, DYT1 vs WT(HC)
Experimental: Data was obtained for extracellular vesicles using previously acquired samples. The ExoQuick® ULTRA EV Isolation System was used to fractionate and enrich EVs from plasma. Isolated plasma EV samples were then submitted to proteomic analysis by the Duke Proteomics and Metabolomics Core Facility (DPMCF). At the DPMCF, quantitative (LC/MS/MS) was performed on 500 ng of each sample, using an EvoSep One UPLC system coupled to a Thermo Orbitrap Astral high-resolution accurate mass tandem mass spectrometer (Thermo). Briefly, the sample was eluted directly from an Evotip which was subjected to a low organic wash and then subjected to an analytical separation using a 1.7 μm EvoSep 150 um ID×15 cm endurance (EveoSep) column running an SPD30 gradient from approximately 5 to 30% acetonitrile with 0.1% formic acid with a column temperature of 50 C. Data collection on the Orbitrap Astral mass spectrometer was performed in a data-independent acquisition (DIA) mode of acquisition with a r=240,000 (@m/z 200) full MS scan from m/z 380-980 with a target AGC value of 4e5 ions. Fixed DIA, windows of 4 m/z from m/z 380 to 980 DIA MS/MS scans were acquired in the Astral with a target AGC value of 5e4 and a max fill time of 6 ms. HCD collision energy setting of 27% was used for all MS2 scans.

[2] = tested on: DYT-TOR1A MEF EVs; assay: Quantitative LC-MS/MS proteomics of EVs from drug-treated DYT-TOR1A MEF cultures (ritonavir, salubrinal); assay type: cell-based, mouse; details: for RTV Corrective Direction: Ritonavir; for RTV Corrective Direction / Sal Corrective Direction: was treatment in MEF's in the direction of WT-like?; for Sal Corrective Direction: Salubrinal; for DYT1/DYT1 + RTV: Directionality of protein change in MEFs EV dataset in DYT1 derived MEFs treated with Ritonavir; for DYT1/DYT1 + Sal: Directionality of protein change in MEFs EV dataset in DYT1 derived MEFs treated with salubrinal
[3] = tested on: DYT-TOR1A MEF EVs; assay: Quantitative LC-MS/MS proteomics of MEF EVs, DYT-TOR1A genotype vs WT; assay type: cell-based, mouse; details: Directionality of protein change in MEFs EV dataset between WT and DYT1 derived MEFs
[4] = tested on: WT MEF EVs; assay: Quantitative LC-MS/MS proteomics of EVs from ISRIB-treated WT MEF cultures; assay type: cell-based, mouse; details: Directionality of protein change in MEFs EV dataset in WT derived MEFs treated with ISRIB

## AGL
[1]
  Mean DYT1: 6.109
  Mean HC: 6.61

## ANK1
[1]
  Log2FC: 1.3159
  Mean DYT1: 5.232
  Mean HC: 3.92

## ARL8B
[1]
  Directionality: DOWN
  Log2_FC: -1.423
  Hs. Plasma EVs (DYT1/WT): DOWN
  Mean DYT1: −0.118
  Mean HC: 1.31

## ATRIP
[1]
  Mean DYT1: 10.249
  Mean HC: 10.86

## Arl8b
[2]
  RTV Corrective Direction: Yes
  Sal Corrective Direction: No

## CEP170
[1]
  Mean DYT1: 3.627
  Mean HC: 2.36

## CLK3
[1]
  Mean DYT1: 10.306
  Mean HC: 10.50

## CRYAB
[1]
  Directionality: DOWN
  Log2_FC: -1.087
  Hs. Plasma EVs (DYT1/WT): DOWN
  Mean DYT1: 3.127
  Mean HC: 4.21

## DLD
[1]
  Mean DYT1: 3.942
  Mean HC: 4.81

## DLST
[1]
  Log2FC: −1.0854
  Directionality: DOWN
  Log2_FC: -1.085
  Hs. Plasma EVs (DYT1/WT): DOWN
  Mean DYT1: 5.753
  Mean HC: 6.84

## DNAH2
[1]
  Log2FC: −0.7484
  Mean DYT1: 7.827
  Mean HC: 8.58

## FAM98A
[1]
  Mean DYT1: 1.241
  Mean HC: 2.94

## FGL1
[1]
  Mean DYT1: 7.153
  Mean HC: 7.97

## FLNA
[1]
  Log2_FC: 1.127
  Mean DYT1: 8.016
  Mean HC: 6.89

## Flna
[3]
  DYT1/WT: DOWN
[2]
  DYT1/DYT1 + RTV: DOWN
  RTV Corrective Direction: Yes
  Sal Corrective Direction: No
[4]
  WT + ISRIB/WT: DOWN

## GOLGA4
[1]
  Mean DYT1: 11.154
  Mean HC: 10.24

## GPR17
[1]
  Mean DYT1: 4.951
  Mean HC: 6.18

## HBA1
[1]
  Mean DYT1: 15.348
  Mean HC: 13.50

## HBD
[1]
  Mean DYT1: 10.966
  Mean HC: 9.30

## ITGA2B
[1]
  Log2FC: 1.3017
  Mean DYT1: 10.153
  Mean HC: 8.85

## LAMA1
[1]
  Mean DYT1: 3.504
  Mean HC: 4.57

## MAPK3
[1]
  Directionality: DOWN
  Log2_FC: -0.9403
  Hs. Plasma EVs (DYT1/WT): DOWN
  Mean DYT1: 3.577
  Mean HC: 4.52

## MKI67
[1]
  Mean DYT1: 7.413
  Mean HC: 9.49

## MYH9
[1]
  Log2_FC: 0.6672
  Mean DYT1: 6.965
  Mean HC: 6.30

## Mapk3
[3]
  DYT1/WT: DOWN
[2]
  DYT1/DYT1 + RTV: DOWN
  DYT1/DYT1 + Sal: DOWN
  RTV Corrective Direction: Yes
  Sal Corrective Direction: Yes
[4]
  WT + ISRIB/WT: DOWN

## Myh9
[3]
  DYT1/WT: DOWN
[2]
  RTV Corrective Direction: No
  Sal Corrective Direction: No

## PCMT1
[1]
  Directionality: DOWN
  Log2_FC: -0.693
  Hs. Plasma EVs (DYT1/WT): DOWN
  Mean DYT1: 3.811
  Mean HC: 4.50

## PI4KA
[1]
  Log2FC: −0.2654
  Directionality: DOWN
  Log2_FC: -0.2654
  Hs. Plasma EVs (DYT1/WT): DOWN
  Mean DYT1: 11.703
  Mean HC: 11.97

## PRSS1
[1]
  Log2FC: −0.3818
  Mean DYT1: 10.851
  Mean HC: 11.23

## PSMC5
[1]
  Directionality: DOWN
  Log2_FC: -0.5986
  Hs. Plasma EVs (DYT1/WT): DOWN
  Mean DYT1: 4.508
  Mean HC: 5.11

## PSME4
[1]
  Directionality: DOWN
  Log2_FC: -0.8792
  Hs. Plasma EVs (DYT1/WT): DOWN
  Mean DYT1: 7.365
  Mean HC: 8.24

## Pcmt1
[3]
  DYT1/WT: DOWN
[2]
  DYT1/DYT1 + RTV: DOWN
  DYT1/DYT1 + Sal: DOWN
  RTV Corrective Direction: Yes
  Sal Corrective Direction: Yes
[4]
  WT + ISRIB/WT: DOWN

## Pi4ka
[2]
  RTV Corrective Direction: Yes
  Sal Corrective Direction: Yes

## Psmc5
[3]
  DYT1/WT: DOWN
[2]
  DYT1/DYT1 + RTV: DOWN
  DYT1/DYT1 + Sal: DOWN
  RTV Corrective Direction: Yes
  Sal Corrective Direction: Yes
[4]
  WT + ISRIB/WT: DOWN

## Psme4
[3]
  DYT1/WT: DOWN
[2]
  DYT1/DYT1 + RTV: DOWN
  RTV Corrective Direction: Yes
  Sal Corrective Direction: No
[4]
  WT + ISRIB/WT: DOWN

## Ptma (SDAAVDTSSEITTKDLKEKKEVVEEAEN; UniProt P26350 2-29, looked up)
[2]
  DYT1/DYT1 + Sal: DOWN
  RTV Corrective Direction: Yes
  Sal Corrective Direction: No

## RHOA
[1]
  Log2_FC: 0.5465
  Mean DYT1: 6.529
  Mean HC: 5.98

## RHOC
[1]
  Mean DYT1: 6.044
  Mean HC: 5.12

## Rhoa
[3]
  DYT1/WT: DOWN
[2]
  DYT1/DYT1 + RTV: DOWN
  DYT1/DYT1 + Sal: DOWN
  RTV Corrective Direction: Yes
  Sal Corrective Direction: Yes
[4]
  WT + ISRIB/WT: DOWN

## SETD2
[1]
  Mean DYT1: 8.990
  Mean HC: 10.52

## SOGA1
[1]
  Mean DYT1: 9.962
  Mean HC: 11.58

## SPTB
[1]
  Mean DYT1: 6.706
  Mean HC: 5.61

## STOM
[1]
  Log2FC: 1.3063
  Log2_FC: 1.306
  Mean DYT1: 8.193
  Mean HC: 6.89

## TARDBP
[1]
  Directionality: DOWN
  Log2_FC: -1.21
  Hs. Plasma EVs (DYT1/WT): DOWN
  Mean DYT1: 3.697
  Mean HC: 4.91

## TGFB2
[1]
  Log2FC: −0.9952
  Directionality: DOWN
  Log2_FC: -0.9952
  Hs. Plasma EVs (DYT1/WT): DOWN
  Mean DYT1: 4.406
  Mean HC: 5.40

## TLN1
[1]
  Log2_FC: 1.171
  Mean DYT1: 8.739
  Mean HC: 7.57

## TLN2
[1]
  Directionality: DOWN
  Log2_FC: -1.218
  Hs. Plasma EVs (DYT1/WT): DOWN
  Mean DYT1: 4.909
  Mean HC: 6.13

## TUBA1B
[1]
  Mean DYT1: 10.079
  Mean HC: 9.36

## Tardbp
[3]
  DYT1/WT: DOWN
[2]
  DYT1/DYT1 + RTV: DOWN
  DYT1/DYT1 + Sal: DOWN
  RTV Corrective Direction: Yes
  Sal Corrective Direction: Yes
[4]
  WT + ISRIB/WT: DOWN

## Tln1
[3]
  DYT1/WT: DOWN
[2]
  DYT1/DYT1 + RTV: DOWN
  RTV Corrective Direction: Yes
  Sal Corrective Direction: No
[4]
  WT + ISRIB/WT: DOWN

## Tln2
[3]
  DYT1/WT: DOWN
[2]
  DYT1/DYT1 + RTV: DOWN
  RTV Corrective Direction: Yes
  Sal Corrective Direction: No
[4]
  WT + ISRIB/WT: DOWN

## Usp7
[3]
  DYT1/WT: DOWN
[2]
  DYT1/DYT1 + RTV: DOWN
  DYT1/DYT1 + Sal: DOWN
  RTV Corrective Direction: Yes
  Sal Corrective Direction: Yes
[4]
  WT + ISRIB/WT: DOWN

## VWF
[1]
  Mean DYT1: 14.625
  Mean HC: 15.47

## WNK1
[1]
  Mean DYT1: 1.769
  Mean HC: 2.63
